Reference: publication PMC8657149

Assays:
[1] = target: T1, TaLTP3-YFP^N, full-length TaLTP3 with signal peptide fused to the N-terminal half of YFP (Triticum aestivum (common wheat line Chinese Spring)) (UniProt Q84N29); assay: split reporter; BiFC: YFP^N and YFP^C fusions coexpressed in N. benthamiana leaves by Agrobacterium infiltration; yellow fluorescence checked 48 hpi
T1 sequence: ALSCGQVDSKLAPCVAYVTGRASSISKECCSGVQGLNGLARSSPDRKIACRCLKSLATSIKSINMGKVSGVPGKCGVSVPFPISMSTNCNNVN

[2] = target: T2, TaLTP3(30-122)-GFP (Triticum aestivum (common wheat line Chinese Spring)) (UniProt Q84N29); assay: co-IP; coexpression in N. benthamiana (tobacco) leaves, total proteins extracted at 3 dpi, IP with GFP-trap beads, immunoblot with α-GFP and α-cMYC
T2 sequence: T1 sequence

binding [1] | binding [2] | Substance
no binding | – | SP(TaPR1a)-YFP^C, signal peptide of TaPR1a fused to the C-terminal half of YFP (wheat (Triticum aestivum)) (domain or fragment)
– | binds | TaPR1a(25-164)-cMYC (wheat (Triticum aestivum)) (domain or fragment)
binds | – | TaPR1a-YFP^C, complete coding region of TaPR1a fused to the C-terminal half of YFP (wheat (Triticum aestivum))

Results are given in words; binding and its absence hold for the method and conditions named. In cells and extracts the contact can be indirect. A result given as binding can be weak or reduced; the word gives no strength. Sequences can lack the tags named with a protein.
